Article PMC10761890

Protein sequences, listed by entry. Tags and fused reporters are not part of them. Lines headed by an entry give the natural chain unless they say otherwise; changes in a name come on top.
UniProt Q61982: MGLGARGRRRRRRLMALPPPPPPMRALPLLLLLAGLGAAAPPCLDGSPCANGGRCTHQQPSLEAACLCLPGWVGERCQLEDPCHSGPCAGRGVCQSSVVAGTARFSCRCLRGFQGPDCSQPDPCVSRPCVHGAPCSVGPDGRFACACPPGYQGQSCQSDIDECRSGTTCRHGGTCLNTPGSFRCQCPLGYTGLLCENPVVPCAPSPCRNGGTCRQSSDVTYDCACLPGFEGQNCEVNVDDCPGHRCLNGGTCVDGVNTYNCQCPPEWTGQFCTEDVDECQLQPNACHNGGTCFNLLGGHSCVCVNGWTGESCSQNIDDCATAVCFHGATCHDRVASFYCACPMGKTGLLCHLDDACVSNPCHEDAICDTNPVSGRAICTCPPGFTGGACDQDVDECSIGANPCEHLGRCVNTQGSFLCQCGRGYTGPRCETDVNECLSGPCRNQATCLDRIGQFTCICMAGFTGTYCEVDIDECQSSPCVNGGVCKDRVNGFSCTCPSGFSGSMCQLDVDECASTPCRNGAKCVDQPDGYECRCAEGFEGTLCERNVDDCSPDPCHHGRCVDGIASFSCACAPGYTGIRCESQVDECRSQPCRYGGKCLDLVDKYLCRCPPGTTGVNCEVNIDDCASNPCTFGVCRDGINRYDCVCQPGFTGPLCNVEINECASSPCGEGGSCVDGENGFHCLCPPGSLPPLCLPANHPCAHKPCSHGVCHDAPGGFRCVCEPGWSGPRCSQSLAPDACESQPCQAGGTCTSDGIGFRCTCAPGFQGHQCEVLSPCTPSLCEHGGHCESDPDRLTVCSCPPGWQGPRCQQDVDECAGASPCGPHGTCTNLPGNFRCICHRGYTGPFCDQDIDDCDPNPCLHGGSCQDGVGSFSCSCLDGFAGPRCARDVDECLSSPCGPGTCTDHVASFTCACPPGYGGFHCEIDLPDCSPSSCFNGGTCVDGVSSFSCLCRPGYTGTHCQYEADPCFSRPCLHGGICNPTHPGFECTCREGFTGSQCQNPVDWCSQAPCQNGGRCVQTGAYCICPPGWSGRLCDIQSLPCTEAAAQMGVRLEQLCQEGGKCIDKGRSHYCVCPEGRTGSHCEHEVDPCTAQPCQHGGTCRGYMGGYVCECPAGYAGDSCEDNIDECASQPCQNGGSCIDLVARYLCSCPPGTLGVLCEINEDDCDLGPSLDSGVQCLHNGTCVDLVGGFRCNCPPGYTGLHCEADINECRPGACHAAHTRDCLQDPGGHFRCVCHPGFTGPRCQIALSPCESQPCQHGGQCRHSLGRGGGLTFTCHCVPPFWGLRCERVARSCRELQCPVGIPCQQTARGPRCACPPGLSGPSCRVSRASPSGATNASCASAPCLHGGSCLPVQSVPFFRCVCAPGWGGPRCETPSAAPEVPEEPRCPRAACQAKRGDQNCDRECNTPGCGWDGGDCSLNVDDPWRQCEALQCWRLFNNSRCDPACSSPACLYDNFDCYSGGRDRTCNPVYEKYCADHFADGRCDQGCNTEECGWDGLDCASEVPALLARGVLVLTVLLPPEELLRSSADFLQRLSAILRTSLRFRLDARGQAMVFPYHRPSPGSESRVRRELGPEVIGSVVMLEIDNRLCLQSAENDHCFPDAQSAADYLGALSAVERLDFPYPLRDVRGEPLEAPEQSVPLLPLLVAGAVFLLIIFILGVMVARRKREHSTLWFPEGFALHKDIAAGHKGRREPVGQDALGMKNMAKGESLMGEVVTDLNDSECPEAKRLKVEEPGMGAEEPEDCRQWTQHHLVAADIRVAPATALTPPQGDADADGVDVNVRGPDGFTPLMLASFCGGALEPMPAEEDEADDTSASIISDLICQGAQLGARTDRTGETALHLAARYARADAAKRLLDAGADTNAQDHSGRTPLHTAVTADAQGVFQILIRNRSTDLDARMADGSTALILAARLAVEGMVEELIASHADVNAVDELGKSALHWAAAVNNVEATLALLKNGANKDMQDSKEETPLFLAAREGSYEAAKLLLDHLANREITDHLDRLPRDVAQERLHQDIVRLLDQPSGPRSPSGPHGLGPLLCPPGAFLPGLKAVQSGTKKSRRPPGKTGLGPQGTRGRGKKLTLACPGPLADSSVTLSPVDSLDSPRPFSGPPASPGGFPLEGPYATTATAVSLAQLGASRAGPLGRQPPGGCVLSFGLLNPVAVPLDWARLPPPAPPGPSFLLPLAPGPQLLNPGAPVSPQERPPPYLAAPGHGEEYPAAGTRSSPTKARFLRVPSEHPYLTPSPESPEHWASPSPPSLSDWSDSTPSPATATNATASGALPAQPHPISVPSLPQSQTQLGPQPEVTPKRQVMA
UniProt Q01705: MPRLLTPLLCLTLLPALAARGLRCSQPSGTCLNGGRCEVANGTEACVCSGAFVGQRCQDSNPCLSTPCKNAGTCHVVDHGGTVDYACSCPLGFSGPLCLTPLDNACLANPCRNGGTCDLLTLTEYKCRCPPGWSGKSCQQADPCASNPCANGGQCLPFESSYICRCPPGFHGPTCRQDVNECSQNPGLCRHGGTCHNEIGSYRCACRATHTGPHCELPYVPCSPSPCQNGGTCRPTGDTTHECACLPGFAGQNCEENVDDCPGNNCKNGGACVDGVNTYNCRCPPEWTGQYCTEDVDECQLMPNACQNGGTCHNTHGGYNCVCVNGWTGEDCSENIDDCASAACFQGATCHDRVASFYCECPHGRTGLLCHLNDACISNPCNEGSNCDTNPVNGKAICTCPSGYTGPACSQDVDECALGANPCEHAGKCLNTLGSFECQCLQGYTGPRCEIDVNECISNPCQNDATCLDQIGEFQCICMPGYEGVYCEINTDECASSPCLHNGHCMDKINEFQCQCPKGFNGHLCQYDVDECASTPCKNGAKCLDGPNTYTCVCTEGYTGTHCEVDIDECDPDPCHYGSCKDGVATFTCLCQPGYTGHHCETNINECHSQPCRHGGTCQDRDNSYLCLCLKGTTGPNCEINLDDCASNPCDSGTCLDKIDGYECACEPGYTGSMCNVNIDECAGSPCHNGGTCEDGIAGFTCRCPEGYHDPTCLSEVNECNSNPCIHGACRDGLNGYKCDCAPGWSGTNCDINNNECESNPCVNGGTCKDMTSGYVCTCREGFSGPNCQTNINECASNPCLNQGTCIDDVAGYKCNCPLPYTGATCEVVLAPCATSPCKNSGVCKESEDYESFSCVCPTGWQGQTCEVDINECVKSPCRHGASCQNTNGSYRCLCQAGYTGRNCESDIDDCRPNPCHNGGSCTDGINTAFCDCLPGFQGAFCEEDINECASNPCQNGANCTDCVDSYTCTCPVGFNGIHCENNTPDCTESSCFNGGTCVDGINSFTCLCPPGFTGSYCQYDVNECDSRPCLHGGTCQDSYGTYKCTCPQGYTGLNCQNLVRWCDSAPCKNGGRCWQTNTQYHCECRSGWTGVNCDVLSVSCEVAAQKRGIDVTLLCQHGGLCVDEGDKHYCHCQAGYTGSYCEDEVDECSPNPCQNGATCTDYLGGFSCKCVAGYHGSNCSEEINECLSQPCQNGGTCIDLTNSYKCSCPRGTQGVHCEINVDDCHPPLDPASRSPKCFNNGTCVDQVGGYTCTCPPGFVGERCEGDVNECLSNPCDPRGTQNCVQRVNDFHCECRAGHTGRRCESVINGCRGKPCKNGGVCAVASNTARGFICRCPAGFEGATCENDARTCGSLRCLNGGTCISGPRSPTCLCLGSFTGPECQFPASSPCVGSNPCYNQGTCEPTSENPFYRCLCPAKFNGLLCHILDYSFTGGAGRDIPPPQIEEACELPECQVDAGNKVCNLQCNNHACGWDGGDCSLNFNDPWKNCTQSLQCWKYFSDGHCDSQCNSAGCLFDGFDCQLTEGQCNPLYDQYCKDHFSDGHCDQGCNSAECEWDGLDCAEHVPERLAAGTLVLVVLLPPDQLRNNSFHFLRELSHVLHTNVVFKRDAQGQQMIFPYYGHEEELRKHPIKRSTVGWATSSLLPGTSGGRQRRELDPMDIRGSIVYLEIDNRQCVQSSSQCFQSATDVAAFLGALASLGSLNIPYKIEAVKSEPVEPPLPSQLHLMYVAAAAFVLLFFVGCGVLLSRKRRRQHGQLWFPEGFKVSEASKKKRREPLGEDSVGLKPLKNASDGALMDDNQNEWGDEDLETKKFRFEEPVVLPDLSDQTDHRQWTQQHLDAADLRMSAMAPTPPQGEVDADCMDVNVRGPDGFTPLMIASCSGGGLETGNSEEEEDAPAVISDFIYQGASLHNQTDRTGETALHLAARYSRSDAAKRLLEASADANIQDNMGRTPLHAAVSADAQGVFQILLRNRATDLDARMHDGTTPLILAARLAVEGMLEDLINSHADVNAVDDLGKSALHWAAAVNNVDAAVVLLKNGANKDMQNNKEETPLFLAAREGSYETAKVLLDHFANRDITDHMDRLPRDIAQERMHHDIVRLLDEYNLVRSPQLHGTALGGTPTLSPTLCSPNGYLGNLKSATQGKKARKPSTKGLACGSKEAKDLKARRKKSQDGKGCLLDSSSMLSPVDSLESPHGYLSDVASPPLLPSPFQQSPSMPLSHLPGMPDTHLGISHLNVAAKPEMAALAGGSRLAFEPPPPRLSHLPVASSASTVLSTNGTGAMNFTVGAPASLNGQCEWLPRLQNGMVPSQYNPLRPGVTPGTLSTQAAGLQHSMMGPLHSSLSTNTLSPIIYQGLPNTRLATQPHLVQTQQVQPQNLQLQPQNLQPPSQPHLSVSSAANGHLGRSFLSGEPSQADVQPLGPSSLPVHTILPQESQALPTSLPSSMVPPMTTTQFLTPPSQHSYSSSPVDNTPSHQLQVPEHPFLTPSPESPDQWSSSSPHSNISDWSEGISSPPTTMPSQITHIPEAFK

Tests used:
Assay in all cases: co-IP; 293T cells co-transfected with a FLAG-tagged and an HA-tagged NICD; lysates 48 h after transfection; anti-FLAG resin, western blot with anti-HA
[1] = target: Notch2 intracellular domain (mouse), N2ICD (mouse) (UniProt O35516)
[2] = target: Notch4 intracellular domain (mouse), full-length N4ICD (mouse) (UniProt P31695)
[3] = target: Notch3 intracellular domain (mouse), N3ICD (mouse) (UniProt Q61982)
[4] = target: N1ICD lacking the C-terminus (RAM/Ank), FLAG-tagged (mouse) (UniProt Q01705)
[5] = target: isolated N1ICD ankyrin domain (Ank), FLAG-tagged (mouse) (UniProt Q01705)

Row | Substance | binding [1] | binding [2] | binding [3] | binding [4] | binding [5]
1 | Notch3 intracellular domain (mouse), N3ICD (from UniProt Q61982) (domain or fragment) | binds | binds |  |  | 
2 | Notch1 intracellular domain (mouse), full-length N1ICD (from UniProt Q01705) (domain or fragment) |  | binds |  |  | 
3 | Notch2 intracellular domain (mouse), N2ICD (from UniProt O35516) (domain or fragment) |  | binds | binds weakly |  | 
4 | Notch4 intracellular domain (mouse), full-length N4ICD (from UniProt P31695) (domain or fragment) | binds |  | binds | binds | binds

No constants are given. Whether binding was seen depends on the method and setting. Binding seen in cells or lysates may run through a third protein. A result given as binding can be weak or reduced; the word gives no strength.
